At least one structure is not confirmed: it was looked up by name or label, or the drawing left a doubt.
Experiments:
[1] = system: Men with COPD; assay: Clinical Phase II study, single inhaled doses by dry powder inhaler; format: in vivo, human; settings: all doses (100, 300, 900 micrograms)
Excerpt: Clinical Phase […] study: A double-blind, randothised, placebo-controlled, cross-over trial assesses the pharmacodynamics, pharmacokinetics and tolerability of aclidinium and its effects in COPD patients
Lung function measurements include FEV1 and FVC.

[2] = Stability in aqueous solutions; format: physicochemical; settings: neutral and basic pHs
Method: Aclidinium is rapidly hydrolyzed in human plasma in its alcohol and acid metabolites. […] The plasma half life of aclidinium in plasma is lower than 5 minutes for human. Moreover, aclidinium is stable in acid aqueous solutions (pH≦4) and the hydrolytic cleavage of the ester bond takes place at neutral and basic pHs.

[3] = system: healthy male volunteers; assay: Clinical Phase I study, single inhaled doses by dry powder inhaler; format: in vivo, human
Method: Clinical Phase I study: Aclidinium bromide is tested in a Phase I, double-blind, partial cross-over, placebo controlled study to assess the activity, pharmacokinetics and tolerability of aclidinium.
Methods: 12 healthy male volunteers are randomly assigned to 1 of 4 treatment sequences comprising single doses of aclidinium (50, 300 and 600 micrograms) or placebo administered by dry powder inhaler. The washout period between administrations is at least 6 days. Efficacy endpoints are specific airway conductance (sGaw), airway resistance (Raw) and bronchial hyperresponsiveness (PC35 sGaw methacholine).

## O=C(O[C@H]1C[N+]2(CCCOc3ccccc3)CCC1CC2)C(O)(c1cccs1)c1cccs1 [aclidinium, 3(R)-(2-hydroxy-2,2-dithien-2-ylacetoxy)-1-(3-phenoxypropyl)-1-azoniabicyclo[2.2.2]octane]
[1]
  increase in FEV1 at 24 h: statistically significant
[2]
  hydrolytic cleavage of the ester bond: takes place
[3]; all timepoints except 1 h and 24 h, vs placebo
  airway resistance (Raw): significantly decreased
[3]; single doses 50, 300, 600 micrograms inhaled, all timepoints 1-24 h, p<0.001 vs placebo
  specific airway conductance (sGaw): significantly increases

Reference: patent US20110243924A1, “NOVEL METHODS” (priority 2007, published 2011)
